These results are taken from paper PMC7372117.

The experiment has as its target T1, Pds5B (human (endogenous in HeLa)) (UniProt Q9NTI5).
T1 sequence: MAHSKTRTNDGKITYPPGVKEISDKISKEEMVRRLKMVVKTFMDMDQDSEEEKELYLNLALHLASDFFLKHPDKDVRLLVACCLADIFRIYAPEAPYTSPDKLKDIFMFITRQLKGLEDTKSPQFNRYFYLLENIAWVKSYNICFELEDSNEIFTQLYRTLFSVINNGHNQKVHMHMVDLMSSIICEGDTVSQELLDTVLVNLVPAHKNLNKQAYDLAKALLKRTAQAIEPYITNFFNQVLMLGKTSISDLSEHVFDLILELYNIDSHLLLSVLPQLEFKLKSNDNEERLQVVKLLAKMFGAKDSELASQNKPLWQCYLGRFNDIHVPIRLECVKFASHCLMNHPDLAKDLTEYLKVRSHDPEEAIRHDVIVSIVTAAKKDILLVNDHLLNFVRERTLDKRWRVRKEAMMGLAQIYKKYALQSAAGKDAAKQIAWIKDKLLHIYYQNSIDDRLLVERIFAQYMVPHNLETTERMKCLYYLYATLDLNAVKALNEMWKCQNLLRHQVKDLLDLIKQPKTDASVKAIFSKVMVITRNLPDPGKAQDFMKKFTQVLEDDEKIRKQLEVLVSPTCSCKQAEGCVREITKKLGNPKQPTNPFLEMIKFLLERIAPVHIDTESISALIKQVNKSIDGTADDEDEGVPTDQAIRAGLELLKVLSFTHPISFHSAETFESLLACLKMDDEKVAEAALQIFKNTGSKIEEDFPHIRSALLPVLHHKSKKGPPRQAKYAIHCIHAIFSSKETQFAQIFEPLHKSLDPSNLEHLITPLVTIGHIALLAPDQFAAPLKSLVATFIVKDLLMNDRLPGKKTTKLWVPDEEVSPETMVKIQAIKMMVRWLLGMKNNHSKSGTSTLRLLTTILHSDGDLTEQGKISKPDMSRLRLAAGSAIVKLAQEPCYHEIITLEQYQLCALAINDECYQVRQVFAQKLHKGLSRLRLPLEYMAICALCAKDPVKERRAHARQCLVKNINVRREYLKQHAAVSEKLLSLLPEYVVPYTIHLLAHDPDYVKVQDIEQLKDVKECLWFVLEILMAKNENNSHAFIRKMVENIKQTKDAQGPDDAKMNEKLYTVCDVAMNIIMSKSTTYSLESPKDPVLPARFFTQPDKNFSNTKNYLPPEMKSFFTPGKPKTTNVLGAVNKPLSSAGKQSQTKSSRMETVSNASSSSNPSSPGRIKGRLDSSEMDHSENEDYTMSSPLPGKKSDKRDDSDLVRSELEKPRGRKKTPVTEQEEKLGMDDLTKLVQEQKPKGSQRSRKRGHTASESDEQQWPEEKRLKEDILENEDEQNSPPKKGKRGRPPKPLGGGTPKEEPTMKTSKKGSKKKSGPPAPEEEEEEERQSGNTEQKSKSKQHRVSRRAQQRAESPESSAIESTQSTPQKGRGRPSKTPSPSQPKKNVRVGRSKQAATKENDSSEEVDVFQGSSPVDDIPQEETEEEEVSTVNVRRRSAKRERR
Description: co-IP; Pds5A or Pds5B immunoprecipitated (1 ug antibody on protein A sepharose, overnight, 4°C) from chromatin-associated protein fractions (micrococcal nuclease) of nocodazole-arrested HeLa cells; western blot against Scc1; asynchronous cells and soluble fractions run in parallel.

No constants are given. Whether binding was seen depends on the method and setting. Binding seen in cells or lysates may run through a third protein. Some results given as binding are weak or reduced against the parent protein; the word gives no strength.

B1: Scc1 (protein, UniProt O60216 1-631)
chain: MFYAHFVLSKRGPLAKIWLAAHWDKKLTKAHVFECNLESSVESIISPKVKMALRTSGHLLLGVVRIYHRKAKYLLADCNEAFIKIKMAFRPGVVDLPEENREAAYNAITLPEEFHDFDQPLPDLDDIDVAQQFSLNQSRVEEITMREEVGNISILQENDFGDFGMDDREIMREGSAFEDDDMLVSTTTSNLLLESEQSTSNLNEKINHLEYEDQYKDDNFGEGNDGGILDDKLISNNDGGIFDDPPALSEAGVMLPEQPAHDDMDEDDNVSMGGPDSPDSVDPVEPMPTMTDQTTLVPNEEEAFALEPIDITVKETKAKRKRKLIVDSVKELDSKTIRAQLSDYSDIVTTLDLAPPTKKLMMWKETGGVEKLFSLPAQPLWNNRLLKLFTRCLTPLVPEDLRKRRKGGEADNLDEFLKEFENPEVPREDQQQQHQQRDVIDEPIIEEPSRLQESVMEASRTNIDESAMPPPPPQGVKRKAGQIDPEPVMPPQQVEQMEIPPVELPPEEPPNICQLIPELELLPEKEKEKEKEKEDDEEEEDEDASGGDQDQEERRWNKRTQQMLHGLQRALAKTGAESISLLELCRNTNRKQAAAKFYSFLVLKKQQAIELTQEEPYSDIIATPGPRFHII
Consider B1, for which the binding entry is “binds”.
